The record followed here is patent US20090252013A1, “HYDRAZIDE CHELATE COMPLEX COMPOUND, OPTICAL RECORDING MEDIUM USING THE COMPOUND AND RECORDING METHOD THEREOF” (Mitsubishi Chemical Corporation, priority 2006, published 2009).

A short description of data set [1]: Recording sensitivity test of dye film on polycarbonate substrate. Conditions: semiconductor laser center wavelength 404 nm, NA=0.85, dye film about 50 nm.
Data set [2] in a line: Characteristics evaluation as optical recording medium (single-layer, HD DVD-R standard Ver. 1.0). Conditions: for optimum recording power / SbER (bit error rate) / PRSNR (Partial Response SNR): 405 nm; for optimum recording power: NA 0.65, linear velocity 6.61 m/s; for SbER (bit error rate): NA 0.65, standard 5.0×10^−5; for PRSNR (Partial Response SNR): NA 0.65, standard 15.

A short description of data set [3]: Recording characteristics of two-layer optical recording medium (Layer 0 / Layer 1).

Turning to `CCOC(=O)CC1=N[N+](=CC=C2N(C)c3ccccc3C2(C)C)[Co-2]2([O]1)[O]C(CC(=O)OCC)=N[N+]2=CC=C1N(C)c2ccccc2C1(C)C` (stereo not shown) [Compound A-6], in data set [1], the “Maximum recording sensitivity at which formation of a recording pit was confirmed” value turned out to be 9.0 mW.

`CCOC(=O)CC1=N[N+](=CC=C2N(CC)c3ccccc3C2(C)Cc2ccccc2)[Co-2]2([O]1)[O]C(CC(=O)OCC)=N[N+]2=CC=C1N(CC)c2ccccc2C1(C)Cc1ccccc1` (stereo not shown) [Compound A-11]: the “Maximum recording sensitivity at which formation of a recording pit was confirmed” value in data set [1] came out at 7.0 mW.

On to `CCN1C(=CC=[N+]2N=C(c3ccccc3)[O][Co-2]23[O]C(c2ccccc2)=N[N+]3=CC=C2N(CC)c3ccc(OC)cc3C2(C)C)C(C)(C)c2cc(OC)ccc21` (stereo not shown) [Compound A-86], for which, in data set [2], the recording mechanism result was “Low-To-High type”, the optimum recording power is listed as 10.0 mW, the “SbER (bit error rate)” value was 1.10×10^−5 and the “PRSNR (Partial Response SNR)” value stood at 16.0.

For `CCN1C(=CC=[N+]2N=C(c3cccc(OC)c3)[O][Co-2]23[O]C(c2cccc(OC)c2)=N[N+]3=CC=C2N(CC)c3ccc(OC)cc3C2(C)C)C(C)(C)c2cc(OC)ccc21` (stereo not shown) [Compound A-87], in data set [2], the recording mechanism result is on record as “Low-to-High type”, the optimum recording power is given as 10.5 mW, the “SbER (bit error rate)” value is listed as 1.50×10^−5 and the “PRSNR (Partial Response SNR)” value amounted to 15.0.

As to `CCOc1ccccc1C1=N[N+](=CC=C2N(CC)c3c(ccc4ccccc34)C2(C)C)[Co-2]2([O]1)[O]C(c1ccccc1OCC)=N[N+]2=CC=C1N(CC)c2c(ccc3ccccc23)C1(C)C` (stereo not shown) [Compound A-88], in data set [2], the recording mechanism result is “Low-to-High type”, the optimum recording power is reported as 10.0 mW, the “SbER (bit error rate)” value is 4.50×10^−5 and the “PRSNR (Partial Response SNR)” value was determined as 17.0.

Consider `CCN1C(=CC=[N+]2N=C(c3ccccc3OC)[O][Co-2]23[O]C(c2ccccc2OC)=N[N+]3=CC=C2N(CC)c3ccc(OC)cc3C2(C)Cc2ccccc2)C(C)(Cc2ccccc2)c2cc(OC)ccc21` (stereo not shown) [Compound A-150], for which, in data set [2], the recording mechanism result is “Low-to-High type”, the optimum recording power amounted to 7.5 mW, the “SbER (bit error rate)” value is 2.60×10^−5 and the “PRSNR (Partial Response SNR)” value is on record as 15.7.

In the case of `CCN1C(=CC=[N+]2N=C(c3ccc(C(=O)OC)cc3)[O][Co-2]23[O]C(c2ccc(C(=O)OC)cc2)=N[N+]3=CC=C2N(CC)c3ccc(OC)cc3C2(C)Cc2cccc(F)c2)C(C)(Cc2cccc(F)c2)c2cc(OC)ccc21` (stereo not shown) [Compound A-152], in data set [2], the recording mechanism result was “Low-to-High type”, the optimum recording power was determined as 5.8 mW and the “PRSNR (Partial Response SNR)” value is given as 31.7. Further, in data set [3] (Layer 0 and Layer 1), the recording mechanism entry is “Low-to-High type”. Moreover, in data set [3] (Layer 1), the PRNSR worked out at 24.0, the SbER was 4.3×10^−8 and the optimum recording power is 13.0 mW.

Turning to `CCN(CC)C(=O)c1ccc(C2=N[N+](=CC=C3N(CC)c4ccc(OC)cc4C3(C)Cc3ccccc3)[Co-2]3([O]2)[O]C(c2ccc(C(=O)N(CC)CC)cc2)=N[N+]3=CC=C2N(CC)c3ccc(OC)cc3C2(C)Cc2ccccc2)cc1` (stereo not shown) [Compound A-159], in data set [2], the recording mechanism result is recorded as “Low-to-High type”, the optimum recording power is 6.0 mW and the “PRSNR (Partial Response SNR)” value is reported as 31.7.

As for `CCN1C(=CC=[N+]2N=C(c3ccc(C(=O)OC)cc3)[O][Co-2]23[O]C(c2ccc(C(=O)OC)cc2)=N[N+]3=CC=C2N(CC)c3ccc(OC)cc3C2(C)Cc2ccccc2)C(C)(Cc2ccccc2)c2cc(OC)ccc21` (stereo not shown) [Compound A-186], in data set [2], the recording mechanism result is listed as “Low-to-High type”, the optimum recording power turned out to be 6.6 mW, the “SbER (bit error rate)” value is reported as 5.60×10^−9 and the “PRSNR (Partial Response SNR)” value is 30.0.

Turning to `CCCN(CCC)S(=O)(=O)c1ccc(C2=N[N+](=CC=C3N(CC)c4ccc(OC)cc4C3(C)Cc3ccccc3)[Co-2]3([O]2)[O]C(c2ccc(S(=O)(=O)N(CCC)CCC)cc2)=N[N+]3=CC=C2N(CC)c3ccc(OC)cc3C2(C)Cc2ccccc2)cc1` (stereo not shown) [Compound A-211], in data set [2], the recording mechanism entry is “Low-to-High type”, the optimum recording power was 6.4 mW, the “SbER (bit error rate)” value was 2.30×10^−9 and the “PRSNR (Partial Response SNR)” value is listed as 28.3.

With `CCN1C(=CC=[N+]2N=C(c3cccc(OCCOC)c3)[O][Co-2]23[O]C(c2cccc(OCCOC)c2)=N[N+]3=CC=C2N(CC)c3ccc(OC)cc3C2(C)Cc2ccccc2)C(C)(Cc2ccccc2)c2cc(OC)ccc21` (stereo not shown) [Compound A-212], in data set [2], the recording mechanism result was “Low-to-High type”, the optimum recording power was 8.5 mW, the “SbER (bit error rate)” value is 1.60×10^−7 and the “PRSNR (Partial Response SNR)” value is listed as 31.3.

For the compound `CN(C)c1ccc(C2=N/[N+](=C/c3ccccn3)[Co-2]3([O]2)[O]C(c2ccc(N(C)C)cc2)=N/[N+]3=C/c2ccccn2)cc1` [Compound B-4, reference compound], in data set [2], the recording mechanism result was “Low-to-High type”, the optimum recording power came to 9.2 mW, the “SbER (bit error rate)” value is recorded as 4.40×10^−4 and the “PRSNR (Partial Response SNR)” value is reported as 10.0.

In the case of `[CH2-][N+]1=C\c2n(C)c3ccccc3[n+]2[Co-3]23([O]C(c4ccc(N(C)C)cc4)=N[N+]2=Cc2n(C)c4ccccc4[n+]23)[O]/C(c2ccc(N(C)C)cc2)=N\1` [Compound B-5, reference compound], in data set [2], the recording mechanism entry is recorded as “Low-to-High type”, the optimum recording power turned out to be 9.5 mW, the “SbER (bit error rate)” value was 1.20×10^−4 and the “PRSNR (Partial Response SNR)” value was 12.0.

As to `[CH2-][N+](=C\C=C\c1ccc(N(CC)CC)cc1)/N=C(\[O][Co-]1[O]C(c2c(C)cc(C)cc2C)=N/[N+]1=C/C=C/c1ccc(N(CC)CC)cc1)c1c(C)cc(C)cc1C` [Compound B-6, reference compound], in data set [2], the recording mechanism entry is “Low-to-High type”, the optimum recording power turned out to be 8.5 mW, the “SbER (bit error rate)” value was 5.20×10^−4 and the “PRSNR (Partial Response SNR)” value stood at 8.5.
